Reference: paper PMC5433425 (PeerJ, 2017)
This continues a long series; more values of the same kind are listed elsewhere.

System: E. coli AG100
Assay: EtBr efflux by real-time fluorometry
Details: 80 µM

## CN(C)CCCN1c2ccccc2Sc2ccc(Cl)cc21 [CPZ, chlorpromazine]
Cycle 1, + glucose
  EtBr fluorescence (Channel Cycling A.530/585hp): 27.2203
Cycle 1, without glucose
  EtBr fluorescence (Channel Cycling A.530/585hp): 28.6428
Cycle 2, + glucose
  EtBr fluorescence (Channel Cycling A.530/585hp): 26.8654
Cycle 2, without glucose
  EtBr fluorescence (Channel Cycling A.530/585hp): 28.0719
Cycle 3, + glucose
  EtBr fluorescence (Channel Cycling A.530/585hp): 27.321
Cycle 3, without glucose
  EtBr fluorescence (Channel Cycling A.530/585hp): 28.0789
Cycle 4, + glucose
  EtBr fluorescence (Channel Cycling A.530/585hp): 27.7793
Cycle 4, without glucose
  EtBr fluorescence (Channel Cycling A.530/585hp): 27.7923
Cycle 5, + glucose
  EtBr fluorescence (Channel Cycling A.530/585hp): 27.8731
Cycle 5, without glucose
  EtBr fluorescence (Channel Cycling A.530/585hp): 28.1016
Cycle 6, + glucose
  EtBr fluorescence (Channel Cycling A.530/585hp): 28.7085
Cycle 6, without glucose
  EtBr fluorescence (Channel Cycling A.530/585hp): 27.8949
Cycle 7, + glucose
  EtBr fluorescence (Channel Cycling A.530/585hp): 28.8867
Cycle 7, without glucose
  EtBr fluorescence (Channel Cycling A.530/585hp): 28.2166
Cycle 8, + glucose
  EtBr fluorescence (Channel Cycling A.530/585hp): 29.4883
Cycle 8, without glucose
  EtBr fluorescence (Channel Cycling A.530/585hp): 28.5752
Cycle 9, + glucose
  EtBr fluorescence (Channel Cycling A.530/585hp): 29.85
Cycle 9, without glucose
  EtBr fluorescence (Channel Cycling A.530/585hp): 28.7691
Cycle 10, + glucose
  EtBr fluorescence (Channel Cycling A.530/585hp): 30.1902
Cycle 10, without glucose
  EtBr fluorescence (Channel Cycling A.530/585hp): 29.1814
Cycle 11, + glucose
  EtBr fluorescence (Channel Cycling A.530/585hp): 30.2907
Cycle 11, without glucose
  EtBr fluorescence (Channel Cycling A.530/585hp): 29.2805
Cycle 12, + glucose
  EtBr fluorescence (Channel Cycling A.530/585hp): 30.9827
Cycle 12, without glucose
  EtBr fluorescence (Channel Cycling A.530/585hp): 29.6425
Cycle 13, + glucose
  EtBr fluorescence (Channel Cycling A.530/585hp): 31.4798
Cycle 13, without glucose
  EtBr fluorescence (Channel Cycling A.530/585hp): 29.6207
Cycle 14, + glucose
  EtBr fluorescence (Channel Cycling A.530/585hp): 31.9618
Cycle 14, without glucose
  EtBr fluorescence (Channel Cycling A.530/585hp): 29.9123
Cycle 15, + glucose
  EtBr fluorescence (Channel Cycling A.530/585hp): 32.3424
Cycle 15, without glucose
  EtBr fluorescence (Channel Cycling A.530/585hp): 30.0665
Cycle 16, + glucose
  EtBr fluorescence (Channel Cycling A.530/585hp): 33.13
Cycle 16, without glucose
  EtBr fluorescence (Channel Cycling A.530/585hp): 30.8072
Cycle 17, + glucose
  EtBr fluorescence (Channel Cycling A.530/585hp): 32.8622
Cycle 17, without glucose
  EtBr fluorescence (Channel Cycling A.530/585hp): 30.7994
Cycle 18, + glucose
  EtBr fluorescence (Channel Cycling A.530/585hp): 33.7388
Cycle 18, without glucose
  EtBr fluorescence (Channel Cycling A.530/585hp): 30.7622
Cycle 19, + glucose
  EtBr fluorescence (Channel Cycling A.530/585hp): 33.8845
Cycle 19, without glucose
  EtBr fluorescence (Channel Cycling A.530/585hp): 31.3764
Cycle 20, + glucose
  EtBr fluorescence (Channel Cycling A.530/585hp): 33.9442
Cycle 20, without glucose
  EtBr fluorescence (Channel Cycling A.530/585hp): 31.5156
Cycle 21, + glucose
  EtBr fluorescence (Channel Cycling A.530/585hp): 34.3645
Cycle 21, without glucose
  EtBr fluorescence (Channel Cycling A.530/585hp): 31.7951
Cycle 22, + glucose
  EtBr fluorescence (Channel Cycling A.530/585hp): 34.5828
Cycle 22, without glucose
  EtBr fluorescence (Channel Cycling A.530/585hp): 32.2136
Cycle 23, + glucose
  EtBr fluorescence (Channel Cycling A.530/585hp): 34.7857
Cycle 23, without glucose
  EtBr fluorescence (Channel Cycling A.530/585hp): 32.4861
Cycle 24, + glucose
  EtBr fluorescence (Channel Cycling A.530/585hp): 35.3156
Cycle 24, without glucose
  EtBr fluorescence (Channel Cycling A.530/585hp): 32.7551
Cycle 25, + glucose
  EtBr fluorescence (Channel Cycling A.530/585hp): 35.4931
Cycle 25, without glucose
  EtBr fluorescence (Channel Cycling A.530/585hp): 33.0906
Cycle 26, + glucose
  EtBr fluorescence (Channel Cycling A.530/585hp): 35.6971
Cycle 26, without glucose
  EtBr fluorescence (Channel Cycling A.530/585hp): 33.2642
Cycle 27, + glucose
  EtBr fluorescence (Channel Cycling A.530/585hp): 35.6663
Cycle 27, without glucose
  EtBr fluorescence (Channel Cycling A.530/585hp): 33.4015
Cycle 28, + glucose
  EtBr fluorescence (Channel Cycling A.530/585hp): 35.5241
Cycle 28, without glucose
  EtBr fluorescence (Channel Cycling A.530/585hp): 33.9385
Cycle 29, + glucose
  EtBr fluorescence (Channel Cycling A.530/585hp): 36.1118
Cycle 29, without glucose
  EtBr fluorescence (Channel Cycling A.530/585hp): 33.96
Cycle 30, + glucose
  EtBr fluorescence (Channel Cycling A.530/585hp): 36.4609
Cycle 30, without glucose
  EtBr fluorescence (Channel Cycling A.530/585hp): 34.4741
Cycle 31, + glucose
  EtBr fluorescence (Channel Cycling A.530/585hp): 36.437
Cycle 31, without glucose
  EtBr fluorescence (Channel Cycling A.530/585hp): 34.7454
Cycle 32, + glucose
  EtBr fluorescence (Channel Cycling A.530/585hp): 37.0162
Cycle 32, without glucose
  EtBr fluorescence (Channel Cycling A.530/585hp): 35.2459
Cycle 33, + glucose
  EtBr fluorescence (Channel Cycling A.530/585hp): 36.6013
Cycle 33, without glucose
  EtBr fluorescence (Channel Cycling A.530/585hp): 35.694
Cycle 34, + glucose
  EtBr fluorescence (Channel Cycling A.530/585hp): 36.6626
Cycle 34, without glucose
  EtBr fluorescence (Channel Cycling A.530/585hp): 35.5648
Cycle 35, + glucose
  EtBr fluorescence (Channel Cycling A.530/585hp): 37.2483
Cycle 35, without glucose
  EtBr fluorescence (Channel Cycling A.530/585hp): 35.7608
Cycle 36, + glucose
  EtBr fluorescence (Channel Cycling A.530/585hp): 37.1295
Cycle 36, without glucose
  EtBr fluorescence (Channel Cycling A.530/585hp): 36.2644
Cycle 37, + glucose
  EtBr fluorescence (Channel Cycling A.530/585hp): 37.0059
Cycle 37, without glucose
  EtBr fluorescence (Channel Cycling A.530/585hp): 36.4583
Cycle 38, + glucose
  EtBr fluorescence (Channel Cycling A.530/585hp): 36.7797
Cycle 38, without glucose
  EtBr fluorescence (Channel Cycling A.530/585hp): 37.0039
Cycle 39, + glucose
  EtBr fluorescence (Channel Cycling A.530/585hp): 37.423
Cycle 39, without glucose
  EtBr fluorescence (Channel Cycling A.530/585hp): 37.2414
Cycle 40, + glucose
  EtBr fluorescence (Channel Cycling A.530/585hp): 36.9377
Cycle 40, without glucose
  EtBr fluorescence (Channel Cycling A.530/585hp): 37.3825
Cycle 41, + glucose
  EtBr fluorescence (Channel Cycling A.530/585hp): 37.4729
Cycle 41, without glucose
  EtBr fluorescence (Channel Cycling A.530/585hp): 37.9067
Cycle 42, + glucose
  EtBr fluorescence (Channel Cycling A.530/585hp): 37.6339
